The source of these data is patent publication US20130129719.

By UniProt entry, the sequences of proteins in these tests, tags left out. Residues count along the entry.
UniProt P06494, 23-1257: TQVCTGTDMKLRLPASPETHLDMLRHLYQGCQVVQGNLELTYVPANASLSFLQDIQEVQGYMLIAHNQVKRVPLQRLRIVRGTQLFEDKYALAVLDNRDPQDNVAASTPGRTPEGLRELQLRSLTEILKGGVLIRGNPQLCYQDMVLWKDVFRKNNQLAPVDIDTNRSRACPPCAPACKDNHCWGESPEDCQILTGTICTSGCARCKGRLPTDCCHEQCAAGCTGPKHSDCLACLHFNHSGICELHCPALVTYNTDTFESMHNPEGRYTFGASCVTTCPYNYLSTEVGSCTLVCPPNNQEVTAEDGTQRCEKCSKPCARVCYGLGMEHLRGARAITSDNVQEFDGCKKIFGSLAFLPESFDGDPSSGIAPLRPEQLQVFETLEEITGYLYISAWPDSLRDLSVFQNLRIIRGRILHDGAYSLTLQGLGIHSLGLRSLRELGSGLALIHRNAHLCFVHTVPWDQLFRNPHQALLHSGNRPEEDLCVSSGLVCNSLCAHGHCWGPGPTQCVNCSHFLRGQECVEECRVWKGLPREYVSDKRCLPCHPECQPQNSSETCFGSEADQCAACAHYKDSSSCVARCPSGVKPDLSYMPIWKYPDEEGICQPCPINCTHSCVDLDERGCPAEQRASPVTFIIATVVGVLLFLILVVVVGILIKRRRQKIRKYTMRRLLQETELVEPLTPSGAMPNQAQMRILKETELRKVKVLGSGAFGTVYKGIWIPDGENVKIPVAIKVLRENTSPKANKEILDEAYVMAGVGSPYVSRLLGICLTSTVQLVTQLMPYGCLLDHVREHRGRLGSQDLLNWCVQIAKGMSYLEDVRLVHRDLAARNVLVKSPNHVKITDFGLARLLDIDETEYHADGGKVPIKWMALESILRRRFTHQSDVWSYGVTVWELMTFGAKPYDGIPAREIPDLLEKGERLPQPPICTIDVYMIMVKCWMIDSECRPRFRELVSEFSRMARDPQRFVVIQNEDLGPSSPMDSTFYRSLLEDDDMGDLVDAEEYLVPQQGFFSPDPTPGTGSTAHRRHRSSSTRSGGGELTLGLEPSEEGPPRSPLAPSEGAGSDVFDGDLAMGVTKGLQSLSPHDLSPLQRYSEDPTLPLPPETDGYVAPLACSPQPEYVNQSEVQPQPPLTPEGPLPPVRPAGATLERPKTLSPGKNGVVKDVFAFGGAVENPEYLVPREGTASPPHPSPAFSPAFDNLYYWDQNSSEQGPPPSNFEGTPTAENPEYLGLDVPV

The data set concerns the target HER2 (Rattus norvegicus) (UniProt P06494). In words: activity in cells. As to conditions: preferential internalization into HER2+ vs HER2- cells by qRT-PCR, protein on the cell surface, dose not given here.

With “GGGAGGACGAUGCGGUCUGUUGUGCUUGAUAUGCCCCAGACGACUCGCCCGAGCUGUCACAGAGGGGCUACUU / GUAGCCCCUCUGUGACAGCUU [B1-Bcl-2 chimera]”, the “functional effect of the aptamer” value (variant of B1) is “active”. Regarding “GGGAGGACGAUGCGGUCUGUGUGGGAUGUGGCCCCAGACGACUCGCCCGAGCUGUCACAGAGGGGCUACUU / GUAGCCCCUCUGUGACAGCUU [D3-Bcl-2 chimera]”, the “functional effect of the aptamer” value is given as “active”. The same measure, in the same setting: for “GGGAGGACGAUGCGGUCUGCUGUGCUUGAUAUGCCCCAGACGACUCGCCCGAGCUGUCACAGAGGGGCUACUU / GUAGCCCCUCUGUGACAGCUU [B3-Bcl-2 chimera]” the value was “active”. In the case of “GGGAGGACGAUGCGGAUGUAUGUUGGGAGCCACGCCAGACGACUCGCCCGAGCUGUCACAGAGGGGCUACUU / GUAGCCCCUCUGUGACAGCUU [D1-Bcl-2 chimera]”, the “functional effect of the aptamer” value (variant of D1) was “active”. Consider “GGGAGGACGAUGCGGCUGUAUGUUGGUAGCCACGCCAGACGACUCGCCCGAGCUGUCACAGAGGGGCUACUU / GUAGCCCCUCUGUGACAGCUU [D2-Bcl-2 chimera]”, for which the “functional effect of the aptamer” value was “active”.

As for “GGGAGGACGAUGCGGCGAUGCUUACGUGCACGCGCCAGACGACUCGCCCGAGCUGUCACAGAGGGGCUACUU / GUAGCCCCUCUGUGACAGCUU [C3-Bcl-2 chimera]”, the “functional effect of the aptamer” value is listed as “active”. For “GGGAGGACGAUGCGGGACUGUACGGGCUCUGUGCAGACGACUCGCCCGAGCUGUCACAGAGGGGCUACUU / GUAGCCCCUCUGUGACAGCUU [A3-Bcl-2 chimera]”, the “functional effect of the aptamer” value is “active”. Regarding “GGGAGGACGAUGCGGGACUGUAUGGGGCUCUGUGCAGACGACUCGCCCGAGCUGUCACAGAGGGGCUACUU / GUAGCCCCUCUGUGACAGCUU [A2-Bcl-2 chimera]”, for the setting “variant of A2”, the “functional effect of the aptamer” value is on record as “active”. In the case of “GGGAGGACGAUGCGGCUGUCUACCUUCUACUGCCGCAGACGACUCGCCCGAGCUGUCACAGAGGGGCUACUU / GUAGCCCCUCUGUGACAGCUU [C1-Bcl-2 chimera]”, the “functional effect of the aptamer” value (variant of C1) is “active”.
